Measurements taken from patent US20070037733A1, “Use of 3-cyclohexenyl-1-propanol as a fragrance” (priority 2003, published 2007).

Tests used:
[1] = Description of odour of single fragrance substances (olfactory evaluation); settings: for Description of odour: alcohol according to the invention
[2] = structurally similar alcohols and known aldehydes; source Arctander / Bauer, Garbe, Surburg; cited from earlier work

Compound	Description of odour [2]	also measured
CC(CO)C1CC=CCC1 (centres unmarked)	–	odour ([1]; purified form (purity>95 wt. %)): flowery, rosy and fatty odour
O=CCCc1ccccc1 [Dihydrocinnamaldehyde]	hyacinths, earthy, warm, cherries, cinnamon, plums	–
OC/C=C/c1ccccc1 [Cinnamic alcohol]	sweet, balsamic, flowery, hyacinths, rose aspects	–
O=C/C=C/c1ccccc1 [Cinnamaldehyde]	cinnamon, spicy, aromatic, clove, sweet, cassia	–
OCCCc1ccccc1 [Dihydrocinnamic alcohol]	sweet, balsamic, hyacinths, flowery, warm and mild	–
OCCCC1CC=CCC1 (centres unmarked) [3-cyclohexenyl-1-propanol]	–	after-odour notes ([1]; after-odour): rosy, fruity, damascenone-like; Description of odour [1]: hydrocinnamic alcohol-like, mushroom-like, hay-like, cinnamon-like, balsamic, flowery; Description of odour ([1]; listed as Cyclohexenylpropanol): hydrocinnamic alcohol, mushroom- like, hay, balsamic, rosalva, rosy, phenylethyl alcohol, cinnamon, styrax, sweet, flowery

Like-named read-outs stand apart in the source and are kept apart here.
